PubChem BioAssay AID1671195, Yale University – 2021
Assay: 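Regulators of LDL receptor activity judged by labelled LDL uptake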 (primary screen). Cell system: human Huh7 hepatoma cells. Reagents: siRNA pool against human genes, 18 nM. Time to read-out: about 2 to 2.5 days of knockdown, then 8 h LDL uptake. Conditions: DiI-labelled LDL at 30 µg/ml for 8 h, in lipoprotein-deficient serum medium. Read-out: 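Fluorescent LDL signal imaged in cells, scaled to the plate median, robust z-score for each replicate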. Scale: robust z-score: higher = more LDL uptake after knockdown. Hit rule: 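a gene counts as active if at least two replicate z-scores exceed ±2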.
The deposit covers about 22,000 reagents; shown is a random part of them. About 1,510 of all reagents (6.9%) were called active. 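Active includes knockdowns raising or lowering LDL uptake; positive z-scores mean more uptake, negative mean less.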

| Gene | PubChem SID | robust z-score, replicate 1 | robust z-score, replicate 2 | robust z-score, replicate 3 | call |
| --- | --- | --- | --- | --- | --- |
| PSMC1P4 | SID442898792 | -0.144 | -1.04 | -0.435 | inactive |
| RAD52 | SID442894777 | 0.485 | -0.404 | -0.38 | inactive |
| RNF144A | SID442884908 | 2.14 | 1.46 | 1.77 | inactive |
| HPX | SID442888612 | 0.633 | 0.837 | 0.602 | inactive |
| SLC22A1 | SID442902031 | -1.22 | -0.969 | -0.811 | inactive |
| UBXN7 | SID442899751 | -1.4 | -0.552 | -0.0414 | inactive |
| TIMM13 | SID442884344 | -2.09 | -1.45 | -2.4 | active |
| PSCA | SID442899450 | -0.507 | -0.856 | -0.503 | inactive |
| DGKB | SID442893423 | 0.253 | 0.201 | -0.3 | inactive |
| RAB12 | SID442888747 | 1.48 | 0.225 | 0.303 | inactive |
| LOC441598 (retired record) | SID442889169 | 0.641 | 0.628 | 0.535 | inactive |
| ZNF847P | SID442885620 | 1 | 1.39 | 1.92 | inactive |
| LOC389319 (retired record) | SID442899577 | -0.738 | -0.456 | -0.726 | inactive |
| KCNJ13 | SID442901212 | -0.897 | -0.84 | -0.866 | inactive |
| PRKCZ | SID442899037 | -0.936 | -0.345 | -0.428 | inactive |
| FBXL2 | SID442886735 | 1.77 | 1.43 | 0.02 | inactive |
| LOC441627 (retired record) | SID442897820 | -0.442 | -0.373 | -0.472 | inactive |
| H1-9P | SID442888993 | 0.691 | 0.752 | 0.443 | inactive |
| APOF | SID442904703 | -1.73 | -1.91 | -1.8 | inactive |
| LOC440274 (retired record) | SID442883444 | 3.06 | 2.69 | 2.9 | active |
| PHF23 | SID442897608 | -0.686 | -0.00478 | -0.522 | inactive |
| LOC442717 (retired record) | SID442894042 | -0.201 | 0.26 | -0.119 | inactive |
| CBLL1 | SID442900658 | -0.143 | -1.09 | -1.13 | inactive |
| SEMA5A | SID442904279 | -1.5 | -1.27 | -1.91 | inactive |
| KRT40 | SID442897257 | -0.153 | -0.545 | -0.397 | inactive |
| RBP7 | SID442894134 | 0.104 | -0.0369 | -0.157 | inactive |
| COPZ1 | SID442895662 | -0.0858 | -0.289 | -0.2 | inactive |
| MTERF1 | SID442895325 | -0.246 | -0.443 | 0.215 | inactive |
| DUSP29 | SID442885187 | 1.33 | 1.73 | 1.84 | inactive |
| LOC441578 (retired record) | SID442886264 | 0.669 | 1.47 | 1.5 | inactive |
| GLYAT | SID442902176 | -1.33 | -0.743 | -0.998 | inactive |
| OR11H4 | SID442900368 | -0.591 | -0.718 | -0.945 | inactive |
| LOC441353 (retired record) | SID442888126 | 0.568 | 0.78 | 0.992 | inactive |
| MMEL1 | SID442899950 | -0.791 | -0.818 | -0.462 | inactive |
| SMAP2 | SID442899685 | -1.05 | -0.0463 | -0.869 | inactive |
| KHDC4 | SID442901004 | -0.942 | -0.81 | -0.761 | inactive |

Reformatted: entries from further up.
{"Gene":"RBP7","PubChem SID":"SID442894134","robust z-score, replicate 1":0.104,"robust z-score, replicate 2":-0.0369,"robust z-score, replicate 3":-0.157,"call":"inactive"}
{"Gene":"COPZ1","PubChem SID":"SID442895662","robust z-score, replicate 1":-0.0858,"robust z-score, replicate 2":-0.289,"robust z-score, replicate 3":-0.2,"call":"inactive"}
{"Gene":"MTERF1","PubChem SID":"SID442895325","robust z-score, replicate 1":-0.246,"robust z-score, replicate 2":-0.443,"robust z-score, replicate 3":0.215,"call":"inactive"}
{"Gene":"DUSP29","PubChem SID":"SID442885187","robust z-score, replicate 1":1.33,"robust z-score, replicate 2":1.73,"robust z-score, replicate 3":1.84,"call":"inactive"}
{"Gene":"LOC441578 (retired record)","PubChem SID":"SID442886264","robust z-score, replicate 1":0.669,"robust z-score, replicate 2":1.47,"robust z-score, replicate 3":1.5,"call":"inactive"}
{"Gene":"GLYAT","PubChem SID":"SID442902176","robust z-score, replicate 1":-1.33,"robust z-score, replicate 2":-0.743,"robust z-score, replicate 3":-0.998,"call":"inactive"}
{"Gene":"OR11H4","PubChem SID":"SID442900368","robust z-score, replicate 1":-0.591,"robust z-score, replicate 2":-0.718,"robust z-score, replicate 3":-0.945,"call":"inactive"}
{"Gene":"LOC441353 (retired record)","PubChem SID":"SID442888126","robust z-score, replicate 1":0.568,"robust z-score, replicate 2":0.78,"robust z-score, replicate 3":0.992,"call":"inactive"}
{"Gene":"MMEL1","PubChem SID":"SID442899950","robust z-score, replicate 1":-0.791,"robust z-score, replicate 2":-0.818,"robust z-score, replicate 3":-0.462,"call":"inactive"}
{"Gene":"SMAP2","PubChem SID":"SID442899685","robust z-score, replicate 1":-1.05,"robust z-score, replicate 2":-0.0463,"robust z-score, replicate 3":-0.869,"call":"inactive"}
{"Gene":"KHDC4","PubChem SID":"SID442901004","robust z-score, replicate 1":-0.942,"robust z-score, replicate 2":-0.81,"robust z-score, replicate 3":-0.761,"call":"inactive"}

The results go on:
| Gene | PubChem SID | robust z-score, replicate 1 | robust z-score, replicate 2 | robust z-score, replicate 3 | call |
| --- | --- | --- | --- | --- | --- |
| ZNF879 | SID442902292 | -0.889 | -0.97 | -1.28 | inactive |
| LOC442016 (retired record) | SID442883373 | 2.57 | 3.34 | 3.4 | active |
| EXO1 | SID442892540 | -0.0843 | 0.224 | 0.323 | inactive |
| GFPT1 | SID442884681 | 2.63 | 1.57 | 1.77 | inactive |
| C1orf220 | SID442902548 | -1.11 | -1.18 | -1.01 | inactive |
| LOC390570 (retired record) | SID442887063 | 0.836 | 1.52 | 0.629 | inactive |
| HACE1 | SID442899780 | -0.673 | -0.863 | -0.468 | inactive |
| SRARP | SID442883544 | 2.12 | 1.86 | 4.16 | active |
| MAP2K2 | SID442886792 | 3.12 | -0.133 | 0.203 | inactive |
| OR10A6 | SID442885309 | 1.68 | 1.79 | 1.23 | inactive |
| GPX1 | SID442902768 | -1.16 | -1.39 | -0.89 | inactive |
| HMCN1 | SID442884638 | 1.24 | 1.41 | 3.62 | inactive |
| SPATC1 | SID442884530 | -2.27 | -2.39 | -2.38 | active |
| OR4C46 | SID442897464 | -0.123 | -0.503 | -0.54 | inactive |
| ASB2 | SID442884495 | -2.13 | -2.3 | -2.24 | active |
| PSG7 | SID442891520 | -0.206 | 0.0424 | 0.993 | inactive |
| ZNF250 | SID442888883 | 0.628 | 0.678 | 0.631 | inactive |
| NOXA1 | SID442895396 | -0.183 | 0.12 | -0.433 | inactive |
| LURAP1 | SID442903815 | -1.48 | -1.3 | -1.41 | inactive |
| FAM106A | SID442887901 | 0.428 | 1.52 | 0.507 | inactive |
| LOC441697 (retired record) | SID442893327 | 0.275 | 0.165 | -0.253 | inactive |
| IFNA14 | SID442899282 | -0.553 | -1.11 | -0.136 | inactive |
| LOC388917 (retired record) | SID442898826 | -0.616 | -0.548 | -0.464 | inactive |
| GRAMD2B | SID442886604 | 0.855 | 1.95 | 0.526 | inactive |
| LOC440828 (retired record) | SID442894198 | 0.234 | -0.241 | -0.103 | inactive |
| CCNJL | SID442899153 | -0.204 | -1.01 | -0.541 | inactive |
| LOC285101 (retired record) | SID442887593 | 1.05 | 0.973 | 0.618 | inactive |
| ORAI1 | SID442902014 | -0.914 | -0.935 | -1.15 | inactive |
| ARL4AP1 | SID442904702 | -2.15 | -1.52 | -1.78 | inactive |
| LOC442534 (retired record) | SID442890151 | -0.173 | 0.765 | 0.778 | inactive |
| HNRNPLL | SID442901176 | -0.616 | -0.973 | -0.996 | inactive |
| ZNF511 | SID442897446 | -0.649 | -0.152 | -0.359 | inactive |
